Laboratory results reported in the supplement of paper PMC10032668.
This is one part of the list. Only hits are listed; about a third recur on repeated control peptides.

Sequences of proteins named here, by UniProt entry; tags and fusion partners are left off.
CALR, P27797, UniProt P27797, whole entry: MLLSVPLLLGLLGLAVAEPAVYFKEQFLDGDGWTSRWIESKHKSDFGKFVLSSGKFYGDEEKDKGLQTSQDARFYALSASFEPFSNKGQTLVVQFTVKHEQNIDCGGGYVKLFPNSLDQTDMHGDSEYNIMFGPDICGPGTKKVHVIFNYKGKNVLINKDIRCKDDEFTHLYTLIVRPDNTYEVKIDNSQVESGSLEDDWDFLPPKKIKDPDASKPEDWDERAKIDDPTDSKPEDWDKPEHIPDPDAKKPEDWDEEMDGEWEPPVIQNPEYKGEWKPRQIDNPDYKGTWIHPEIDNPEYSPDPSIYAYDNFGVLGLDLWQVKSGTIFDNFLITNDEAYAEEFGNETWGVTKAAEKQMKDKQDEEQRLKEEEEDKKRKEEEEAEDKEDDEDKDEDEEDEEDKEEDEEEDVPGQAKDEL

What was measured:
Experiment in all cases: PRISMA enrichment of interactor (LFQ) in peptide spot vs all other peptide spots (log2 fold change); higher = stronger / more specific binding of the interactor to the peptide
[1] = target: ATG4B, Q9Y4P1
Protocol: (§1)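 PRISMA: 15-aa overlapping tiles (offset 8 aa) of 60 microproteins, plus SOS1/GLUT1 control peptides, were spot-synthesized on cellulose membranes in triplicate. Membranes were incubated with benzonase-treated HEK293T lysate, and bound proteins were identified by LC-MS/MS with LFQ. Enrichment is the log2 fold change of each protein in one spot versus all other spots. Only interactors passing the significance cutoff are listed.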

[2] = target: GLS, O94925
Protocol: as §1

[3] = target: KPNA2, P52292
Protocol: as §1

[4] = target: PHF8, Q9UPP1
Protocol: as §1

[5] = target: ZNF622, Q969S3
Protocol: as §1

[6] = target: ASNS, P08243
Protocol: as §1

[7] = target: ATP6V0D1, P61421
Protocol: as §1

[8] = target: CALR, P27797
Protocol: as §1

[9] = target: CCDC47, Q96A33
Protocol: as §1

[10] = target: CDK9, P50750
Protocol: as §1

[11] = target: DES, P17661
Protocol: as §1

[12] = target: EARS2, Q5JPH6
Protocol: as §1

[13] = target: KARS, Q15046
Protocol: as §1

[14] = target: MRPL24, Q96A35
Protocol: as §1

[15] = target: MRPS34, P82930
Protocol: as §1

[16] = target: MRPS5, P82675
Protocol: as §1

[17] = target: NAA10, P41227
Protocol: as §1

[18] = target: OLA1, Q9NTK5
Protocol: as §1

[19] = target: POLD2, P49005
Protocol: as §1

[20] = target: SDF2L1, Q9HCN8
Protocol: as §1

[21] = target: SNX1, Q13596
Protocol: as §1

[22] = target: ATG3, Q9NT62
Protocol: as §1

[23] = target: CLASP2, O75122
Protocol: as §1

[24] = target: CPSF3, Q9UKF6
Protocol: as §1

[25] = target: DDX46, Q7L014
Protocol: as §1

[26] = target: EIF2B2, P49770
Protocol: as §1

[27] = target: ETF1, P62495
Protocol: as §1

[28] = target: GTF2I, P78347
Protocol: as §1

[29] = target: HDLBP, Q00341
Protocol: as §1

[30] = target: KAT7, O95251
Protocol: as §1

[31] = target: LYRM2, Q9NU23
Protocol: as §1

[32] = target: MRPL11, Q9Y3B7
Protocol: as §1

[33] = target: NACA
Protocol: as §1

[34] = target: PSMD12, O00232
Protocol: as §1

[35] = target: PSMG1, O95456
Protocol: as §1

[36] = target: RTF1, Q92541
Protocol: as §1

[37] = target: TOP1, P11387
Protocol: as §1

[38] = target: UTP6, Q9NYH9
Protocol: as §1

[39] = target: XRN2, Q9H0D6
Protocol: as §1

[40] = target: ATP5MF, P56134
Protocol: as §1

[41] = target: CSNK2A1, P68400
Protocol: as §1

[42] = target: LUC7L3, O95232
Protocol: as §1

[43] = target: NDUFA2, O43678
Protocol: as §1

[44] = target: NOP16, Q9Y3C1
Protocol: as §1

[45] = target: PIK3R4, Q99570
Protocol: as §1

Binder: ARLLDTCRLRYGGLA [CTD-2366F13.1]
- PRISMA enrichment of interactor (log2) [1]: 5.47
- PRISMA enrichment of interactor (log2) [2]: 4.93
- PRISMA enrichment of interactor (log2) [3]: 4.89
- PRISMA enrichment of interactor (log2) [4]: 4.73
- PRISMA enrichment of interactor (log2) [5]: 5.71

Binder: LKVVLREAVAECLMD [PVT1]
- PRISMA enrichment of interactor (log2) [6]: 8.28
- PRISMA enrichment of interactor (log2) [7]: 7.6
- PRISMA enrichment of interactor (log2) [8]: 6.66
- PRISMA enrichment of interactor (log2) [9]: 5.69
- PRISMA enrichment of interactor (log2) [10]: 6.35
- PRISMA enrichment of interactor (log2) [11]: 4.6
- PRISMA enrichment of interactor (log2) [12]: 7.56
- PRISMA enrichment of interactor (log2) [13]: 4.92
- PRISMA enrichment of interactor (log2) [14]: 4.62
- PRISMA enrichment of interactor (log2) [15]: 7.33
- PRISMA enrichment of interactor (log2) [16]: 7.16
- PRISMA enrichment of interactor (log2) [17]: 6.01
- PRISMA enrichment of interactor (log2) [18]: 4.99
- PRISMA enrichment of interactor (log2) [19]: 6.04
- PRISMA enrichment of interactor (log2) [20]: 8.34
- PRISMA enrichment of interactor (log2) [21]: 5.16

Binder: RPPAWSAGPGAATRA [C5orf56]
- PRISMA enrichment of interactor (log2) [22]: 5.15
- PRISMA enrichment of interactor (log2) [23]: 5.6
- PRISMA enrichment of interactor (log2) [24]: 3.93
- PRISMA enrichment of interactor (log2) [25]: 4.09
- PRISMA enrichment of interactor (log2) [26]: 4.2
- PRISMA enrichment of interactor (log2) [27]: 6.62
- PRISMA enrichment of interactor (log2) [28]: 5.64
- PRISMA enrichment of interactor (log2) [29]: 4.68
- PRISMA enrichment of interactor (log2) [30]: 3.68
- PRISMA enrichment of interactor (log2) [31]: 3.93
- PRISMA enrichment of interactor (log2) [32]: 5.62
- PRISMA enrichment of interactor (log2) [33]: 5.42
- PRISMA enrichment of interactor (log2) [34]: 8.72
- PRISMA enrichment of interactor (log2) [35]: 7.09
- PRISMA enrichment of interactor (log2) [36]: 4.84
- PRISMA enrichment of interactor (log2) [37]: 6.28
- PRISMA enrichment of interactor (log2) [38]: 5.03
- PRISMA enrichment of interactor (log2) [39]: 4.33

Binder: SPGRFFHNLNLSSPG [EBAG9]
- PRISMA enrichment of interactor (log2) [40]: 6.78
- PRISMA enrichment of interactor (log2) [41]: 10.2
- PRISMA enrichment of interactor (log2) [42]: 5.2
- PRISMA enrichment of interactor (log2) [43]: 3.93
- PRISMA enrichment of interactor (log2) [44]: 6.53
- PRISMA enrichment of interactor (log2) [45]: 5.94
